# From PMC7848731
# For at least one entry, the source does not settle the construct or the ends of the probe.
# Tested on: PrpT + PrpA (in PrpT/PrpA complex)
# Assay: EMSA
# Conditions: EMSA: 0.1 pmol probe in 20 ul, 1x LightShift Binding buffer, 2.5% glycerol, 0.05% NP40, 50 mM added KCl, 5 mM MgCl2, 0.25 ug poly(dI:dC), 25 C 2 h; recombinant protein; label: biotin (EMSA) or FAM (footprinting) on M13F end; probe letters rebuilt from the primers and the genome; part of a longer molecule
sequence,measurement,value
CTTTTCAACCCGTTGTTCATTATATCGAATTTGACTTCGACTCAACCGACTTACCGGGCCACGCCGCTGATGTCCTGGCGCCCCATATTACATATCTCACCACGCATCCGAATGAGCGGATCTTAATTCAGGGCGCAGGCGACACGTCGGGTACCTTTGCCTACAATTATCAGCTGGGACTGGCGCGGGCCCGGGCAGTCATGCGTCACCTCACGGATGCCGGCATTGACGCGCAGCGCATTAAAGTCGTGTCTGTGTCTAAGGCCAATGCCCGGCAAAAATCCTACACGCGCACCGCGCACCTGGTTTACTGACGCCTCTGCGCACACCCGTCATGGTAGTTTGTAATGATATGTCTTATAATTGACCAGGTAGACCCTGACAAGAAAAGAGGCTCAGT (double strand) [prpAT promoter probe],binding result,binds
